# Reference: PubChem BioAssay AID1487 (National Center for Advancing Translational Sciences (NCATS), 2009)
# Several values for one entry are separate records, joined by “and”; a condition that tells them apart may be missing. Equal entries are not always repeated. The list shows a part of the results. The main result of the screen is listed elsewhere. These columns were measured beside it and carry no call. The list favours compounds with an active or inconclusive main result. Potencies come from curve fits of mixed quality, noted in brackets.
# Assay: qHTS Assay for Modulators of Lamin A Splicing
# Conditions: HeLa LMNA splicing GFP/RFP minigene ratio, 48 h
# From the text: NCGC Assay Overview: Hutchinson-Gilford Progeria Syndrome (HGPS) is a pediatric premature aging disease caused by a spontaneous mutation in the lamin A/C (LMNA) gene. The mutation activates a cryptic splice site in the LMNA pre-mRNA which results in production of a pre-lamin A protein that cannot be processed properly. The mutant protein accumulates in the nucleus and negatively affects numerous cellular functions. Correction of the splicing defect in HGPS patient cells using a targeted oligonucleotide (exo11) leads to reversal of the cellular disease phenotypes. To identify small molecule modulators of aberrant LMNA splicing, a homogenous assay was constructed in HeLa cells that used a GFP containing minigene to report on correction of aberrant splicing in lamin A and a RFP (DsRed2) to report on cell viability, uniformity and nonspecific effects on the assay signal. This assay was adapted to laser-scanning microplate cytometry (Acumen, TTP Labtech) where miniaturization of the assay to a 1,536-well plate format was possible. References: Bowen, W. P.; Wylie, P. G. Application of Laser-Scanning Fluorescence Microplate Cytometry in High Content Screening. Assay Drug Dev Technol 2006;4:209-221. Scaffidi P, Misteli T. Reversal of the cellular phenotype in the premature aging disease Hutchinson-Gilford progeria syndrome. Nat.
# NCGC Assay Protocol Summary: Reagents/Controls: Stable clones expressing DsRed2 and lamin A-EGFP were generated by Cell and Molecular Technologies in S3 HeLa cells. HeLa cells were prepared for the assay when they were 70-90% confluent. The cells were counted and resuspended in Opti-MEM I (no phenol red; Gibco), 2% FBS, 1% penicillin/ streptomycin (Gibco) at concentration of 120 cells/uL concentration. The suspension was passed through a Falcon basket filter with pore size 40um (Beckton Dickson). Control titrations: column […] 1536-well plate contained a sixteen point titration (1:2 dilutions) in duplicate of ancitabine (Sigma: A8598) beginning at 40 uM final concentration. Column 2 contained a sixteen point titration (1:2 dilutions) of cycloheximide beginning at 1.4 mM final concentration. Column 3 contained ancitabine at 40 uM and column 4 contained was the vehicle control (0.5% DMSO final concentration). Assay Steps: 5 uL of HeLa cells were plated in Aurora LoBase black clear bottom (cyclic-olefin polymer) 1536-well plates at a final density of 600 cells/well. Controls and library compounds were added with a 1536-well pin array using the Kalypsys pin-tool. The plates were then incubated for 48 hrs in a cell-culture incubator (37 °C; 5% CO2, 98% humidity). Following incubation the plates were read on the Acumen Explorer using the 488 nm laser. Data was collected on objects between 10 and 100 um in size. Cell objects were defined by a 15 um width x 10 um depth filter. The ratio of the total object intensity in PMT1 (500-530 nm emission; GFP) over PMT3 (575-640 nm emission; RFP) was calculated for analysis. Keywords: NIH Roadmap, MLSCN, MLI, MLSMR, qHTS, NCGC, lamin A, Progeria, RNA splicing.
# [1] = measured here: RFP viability control channel
# [2] = measured here: GFP splicing reporter channel
Compound,AC50 [1],AC50 [2]
O=C1NC(=O)C(=Cc2ccc(OCCOc3ccc([N+](=O)[O-])cc3)cc2)C(=O)N1,"20 µM [falling, single point]",–
Cc1nonc1OCCNCCNc1ccc([N+](=O)[O-])c2cccnc12,"0.501 µM [rising, full curve, poor fit]","0.355 µM [rising, full curve]"
CCCN1CCO[C@@H]2c3cc(O)ccc3OC[C@H]21,"6.31 µM [falling, single point]",–
CC1CCN(c2nc(NCc3ccco3)nc(N)c2[N+](=O)[O-])CC1,"22.4 µM [rising, partial curve]","15.8 µM [rising, partial curve]"
O=C(Nc1ccc(F)cc1F)c1cccn(Cc2ccccc2)c1=O,–,"0.01 µM [rising, full curve, poor fit]"
c1ccc2c3c([nH]c2c1)CNCC3,–,"22.4 µM [rising, single point]"
O=c1[nH]c(=O)n(-c2ccccc2)c(O)c1/C=C/C=Nc1ccccc1,–,"35.5 µM [falling, single point]"
Cc1cc(OC(=O)c2cccs2)c2c3c(c(=O)oc2c1)CCCC3,"12.6 µM [rising, partial curve]",–
CCCCCCCCCCCCCCCC[n+]1ccccc1,"5.62 µM [falling, partial curve, poor fit]","0.000891 µM [falling, full curve, poor fit]"
CN(C)[C@@H]1C(=O)C(C(N)=O)=C(O)[C@]2(O)C(=O)C3=C(O)c4c(O)cccc4[C@@](C)(O)[C@H]3[C@H](O)[C@@H]12,"0.0794 µM [falling, full curve, poor fit]",–
O=C1/C(=C/c2cccnc2)SC(=NCc2ccccc2)N1Cc1ccccc1,"10 µM [rising, partial curve]",–
Cc1ccc(CN2CCN(Cc3ccccc3)CC2)cc1,"0.00355 µM [falling, full curve, poor fit]",–
C=C(C)C1Cc2c(ccc3c2OC2COc4cc(OC)c(OC)cc4C2C3=O)O1 (stereo unspecified),"2.82 µM [falling, full curve, poor fit]","1.12 µM [falling, full curve]"
COc1ccc(CCN)cc1O,"5.62 µM [falling, single point]","5.62 µM [falling, partial curve, poor fit]"
COC(=O)c1cc2c(cn1)[nH]c1ccccc12,"0.001 µM [falling, full curve, poor fit]","22.4 µM [falling, partial curve, poor fit]"
C[C@@H]1O[C@@H](O[C@H]2C[C@@H](O)[C@]3(CO)[C@H]4[C@H](O)C[C@]5(C)[C@@H]([C@@H]6COC(=O)C6)CC[C@]5(O)[C@@H]4CC[C@]3(O)C2)[C@H](O)[C@H](O)[C@H]1O,"1 µM [rising, full curve]","2 µM [falling, full curve]"
CC(CO)NC(=O)C1C=C2c3cccc4[nH]cc(c34)CC2N(C)C1 (stereo unspecified),"0.398 µM [rising, full curve]","0.316 µM [rising, full curve]"
Clc1ccc(C(c2ccc(Cl)cc2)n2cc[n+](CC(OCc3ccc(Cl)cc3Cl)c3ccc(Cl)cc3Cl)c2)cc1 (stereo unspecified),"12.6 µM [falling, partial curve]","17.8 µM [falling, partial curve]"
N[C@@H](Cc1c[nH]c2ccccc12)c1nnc(SCc2ccc(Cl)cc2)o1,"2 µM [rising, partial curve, poor fit]","10 µM [rising, partial curve, poor fit]"
CCn1c(O)c(C=NCc2cccs2)c(=O)n(CC)c1=S,"31.6 µM [rising, single point]",–
Nc1c(Br)cc(Br)cc1CNC1CCC(O)CC1 (stereo unspecified),"31.6 µM [falling, single point]","2.51 nM [falling, partial curve, poor fit] and 794 nM [falling, partial curve, poor fit]"
O=C(Cn1ncc2c3ccccc3n(Cc3ccccc3)c2c1=O)N1CCC2(CC1)OCCO2,"17.8 µM [rising, single point]","12.6 µM [rising, partial curve]"
COCCNC(=O)c1c(NC(=O)c2ccc(Br)o2)n(Cc2ccccc2)c2nc3ccccc3nc12,–,"3.16 µM [falling, partial curve, poor fit]"
CC(=NCCO)c1c(O)n(C2CCCCC2)c(=O)[nH]c1=O,"0.158 µM [rising, partial curve]",–
CN1CCC(O)(c2ccc(Cl)cc2)C(C(=O)c2ccc(Cl)cc2)C1 (stereo unspecified),"35.5 µM [falling, single point]","10 µM [falling, partial curve, poor fit]"

# Ordered by molar mass (rising): part of the list above
Compound,AC50 [1],AC50 [2]
COC(=O)c1cc2c(cn1)[nH]c1ccccc12,"0.001 µM [falling, full curve, poor fit]","22.4 µM [falling, partial curve, poor fit]"
CCn1c(O)c(C=NCc2cccs2)c(=O)n(CC)c1=S,"31.6 µM [rising, single point]",–
Cc1nonc1OCCNCCNc1ccc([N+](=O)[O-])c2cccnc12,"0.501 µM [rising, full curve, poor fit]","0.355 µM [rising, full curve]"

# The list continues:

Compound,AC50 [1],AC50 [2]
N#C/C(=C\c1ccc(O)c(O)c1)C(=O)NCCCNC(=O)/C(C#N)=C/c1ccc(O)c(O)c1,"3.16 µM [rising, full curve, poor fit]",–
COC(=O)C1CN(C#N)N(c2ccc(Cl)cc2)C12c1ccccc1-c1ccccc12 (stereo unspecified),"7.08 µM [falling, partial curve]","0.501 µM [falling, partial curve, poor fit]"
CN(C)C(=O)Oc1ccc(OCc2n(C)c3ccccc3[n+]2C)cc1,"11.2 µM [rising, partial curve]","17.8 µM [rising, partial curve]"
c1ccc2c(CNC3CCCCCC3)c[nH]c2c1,"11.2 µM [rising, partial curve]",–
CC(=O)OC1C([N+]2(C)CCCCC2)C[C@H]2C3CC[C@H]4C[C@H](OC(C)=O)C([N+]5(C)CCCCC5)CC4(C)C3CCC12C (stereo partly specified),–,"0.0141 µM [falling, full curve, poor fit]"
O=C(Nc1ccc(F)c([N+](=O)[O-])c1)c1cccn(Cc2ccccc2)c1=O,"1.12 µM [falling, full curve]","0.158 µM [falling, partial curve]"
O=C(CN1CC=C(c2ccccc2)CC1)Nc1cc(Cl)ccc1Cl,"17.8 µM [rising, partial curve, poor fit]",–
COc1ccc(NC2=NCC(C)S2)cc1 (stereo unspecified),"3.55 µM [rising, single point]","5.01 µM [rising, partial curve, poor fit]"
CC(C)(C)c1cc(O)ccc1O,"1.26 µM [falling, full curve, poor fit]","35.5 µM [falling, single point]"
CC(O)C1CCC2C3CCC4CC(O)CCC4(C)C3CCC12C (stereo unspecified),"4.47 µM [rising, full curve]","7.94 µM [rising, partial curve]"
Brc1c(NC2=NCCN2)ccc2nccnc12,"2.51 µM [falling, partial curve, poor fit] and 12.6 µM [rising, partial curve]","1.58 µM [falling, partial curve]"
O=C1OC(=O)C2C1[C@@H]1CC[C@H]2O1 (stereo partly specified),"35.5 µM [rising, partial curve]","35.5 µM [rising, partial curve, poor fit]"
Cc1cccc2c3c(ccc12)C1=C(C(=O)C3=O)C(C)CO1 (stereo unspecified),"22.4 µM [falling, single point]","17.8 µM [falling, single point]"
CCC1/C=C/C=CCC(C)C(O)[C@@](C)(O)C(=O)C(C)C(O)C(C)C(=O)C(C)C(O)C(C)C=CC(=O)O[C@H]2C(C)C(CC1)O[C@]1(CCC(C)C(CC(C)O)O1)C2C (stereo partly specified),–,"0.891 µM [rising, partial curve, poor fit]"
O=c1c2ccccc2nc(/C=C/c2ccc3c(c2)OCO3)n1-c1cccc(O)c1,"20 µM [rising, partial curve]","14.1 µM [rising, single point]"
NC(=O)CS(=O)C(c1ccccc1)c1ccccc1 (stereo unspecified),"0.00178 µM [rising, full curve, poor fit]",–
CC(=NCc1ccc2c(c1)OCO2)c1c(O)n(C)c(=O)n(C)c1=O,"20 µM [rising, partial curve]","20 µM [rising, single point]"
O=P1(N(CCCl)CCCl)NCCCO1 (stereo unspecified),–,"0.794 µM [falling, full curve]"
CC(C)(C)C(=O)OC[N+](C)(C)CCOC(=O)C(O)(c1ccccc1)C1CCCC1 (stereo unspecified),"35.5 µM [rising, partial curve, poor fit]","2.24 µM [rising, partial curve, poor fit]"
c1ccc2c(c1)sc1ccccc12,–,"0.0794 µM [falling, full curve, poor fit]"
CCc1nc2ccccc2c(=O)n1-c1cccc(OC)c1,–,"8.91 µM [rising, partial curve, poor fit]"
CN1[C@@H]2CC[C@H]1CC(O)C2 (stereo partly specified),"3.55 µM [falling, partial curve, poor fit]",–
Cn1c(O)c(C=NCCc2c[nH]c3ccccc23)c(=O)n(C)c1=O,"11.2 µM [falling, single point]",–
CC(=O)OCC1=C(C(=O)[O-])N2C(=O)[C@@H](NC(=O)CCC[C@@H](N)C(=O)[O-])[C@H]2SC1.[Zn+2],"0.00398 µM [falling, full curve, poor fit]",–
O=C(O)CNC(=O)c1ccccc1I,"8.91 µM [falling, partial curve]","10 µM [falling, partial curve, poor fit]"
